Drug screen on melanoma cell lines: cell count

Source: doi:10.1371/journal.pone.0140310, primary screening data, rounded.

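Human melanoma cell lines in 1,536-well plates were treated with a pair of drugs for 72 h, then fixed, stained and imaged. The read-out is cell count (nuclei) in % of the DMSO control; lower values mean stronger growth inhibition or killing. Concentrations were fixed for each drug; these are the higher of two levels. The file gives one value for each pair and line, without errors, so small differences may be noise.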 Only some of the drugs and lines screened are listed, without regard to their results.

Drug key:
bexarotene, 10 µM: C=C(c1ccc(C(=O)O)cc1)c1cc2c(cc1C)C(C)(C)CCC2(C)C
sunitinib, 2 µM: CCN(CC)CCNC(=O)c1c(C)[nH]c(/C=C2\C(=O)Nc3ccc(F)cc32)c1C
GW0742, 10 µM: Cc1cc(SCc2sc(-c3ccc(C(F)(F)F)c(F)c3)nc2C)ccc1OCC(=O)O
fingolimod, 10 µM: CCCCCCCCc1ccc(CCC(N)(CO)CO)cc1
ruxolitinib, 5 µM: N#CC[C@H](C1CCCC1)n1cc(-c2ncnc3[nH]ccc23)cn1
docetaxel, 0.0005 µM: CC(=O)O[C@@]12CO[C@@H]1C[C@H](O)[C@@]1(C)C(=O)[C@H](O)C3=C(C)[C@@H](OC(=O)[C@H](O)[C@@H](NC(=O)OC(C)(C)C)c4ccccc4)C[C@@](O)([C@@H](OC(=O)c4ccccc4)[C@H]21)C3(C)C
NVP-BEZ235, 0.02 µM: Cn1c(=O)n(-c2ccc(C(C)(C)C#N)cc2)c2c3cc(-c4cnc5ccccc5c4)ccc3ncc21
pioglitazone, 10 µM: CCc1ccc(CCOc2ccc(CC3SC(=O)NC3=O)cc2)nc1 (configuration not stated)
KU-55933, 5 µM: O=c1cc(-c2cccc3c2Sc2ccccc2S3)oc(N2CCOCC2)c1
BMS-536924, 1 µM: Cc1cc(N2CCOCC2)cc2[nH]c(-c3c(NC[C@@H](O)c4cccc(Cl)c4)cc[nH]c3=O)nc12
VX-702, 2 µM: NC(=O)c1ccc(N(C(N)=O)c2c(F)cccc2F)nc1-c1ccc(F)cc1F
tanespimycin, 0.01 µM: C=CCNC1=C2C[C@@H](C)C[C@H](OC)[C@H](O)[C@@H](C)/C=C(\C)[C@H](OC(N)=O)[C@@H](OC)/C=C\C=C(/C)C(=O)NC(=CC1=O)C2=O
LFM-A13, 10 µM: C/C(O)=C(\C#N)C(=O)Nc1cc(Br)ccc1Br
RKI-983, 2 µM: C[C@@H](N)c1ccc(C(=O)Nc2ccnc3[nH]ccc23)cc1
PF-562271, 0.4 µM: CN(c1ncccc1CNc1nc(Nc2ccc3c(c2)CC(=O)N3)ncc1C(F)(F)F)S(C)(=O)=O
OSI-906, 2 µM: C[C@]1(O)C[C@@H](c2nc(-c3ccc4ccc(-c5ccccc5)nc4c3)c3c(N)nccn32)C1
lapatinib, 4 µM: CS(=O)(=O)CCNCc1ccc(-c2ccc3ncnc(Nc4ccc(OCc5cccc(F)c5)c(Cl)c4)c3c2)o1
perifosine, 2 µM: CCCCCCCCCCCCCCCCCCOP(=O)([O-])OC1CC[N+](C)(C)CC1
sorafenib, 2 µM: CNC(=O)c1cc(Oc2ccc(NC(=O)Nc3ccc(Cl)c(C(F)(F)F)c3)cc2)ccn1

| # | Drugs | COLO 829 | COLO 800 | COLO 792 |
|---|---|---|---|---|
| 1 | tanespimycin + ruxolitinib | 85.4 | 84.9 | 59.1 |
| 2 | fingolimod + BMS-536924 | 45.0 | 5.5 | 2.4 |
| 3 | docetaxel + sunitinib | 63.7 | 27.4 | 24.6 |
| 4 | GW0742 + tanespimycin | 91.4 | 79.6 | 103 |
| 5 | sorafenib + OSI-906 | 113 | 57.4 | 93.8 |
| 6 | ruxolitinib + lapatinib | 96.6 | 72.8 | 73.6 |
| 7 | fingolimod + lapatinib | 4.1 | 14.0 | 1.1 |
| 8 | fingolimod + pioglitazone | 43.8 | 10.2 | 2.1 |
| 9 | LFM-A13 + KU-55933 | 105 | 51.0 | 90.8 |
| 10 | fingolimod + NVP-BEZ235 | 31.6 | 8.3 | 1.2 |
| 11 | docetaxel + GW0742 | 32.9 | 31.5 | 21.4 |
| 12 | fingolimod + sorafenib | 23.4 | 8.9 | 1.2 |
| 13 | BMS-536924 + ruxolitinib | 138 | 47.7 | 66.6 |
| 14 | NVP-BEZ235 + LFM-A13 | 92.5 | 83.6 | 48.0 |
| 15 | VX-702 + sorafenib | 92.0 | 141 | 111 |
| 16 | fingolimod + PF-562271 | 41.5 | 18.2 | 21.7 |
| 17 | perifosine + LFM-A13 | 115 | 83.2 | 112 |
| 18 | sunitinib + NVP-BEZ235 | 106 | 51.0 | 22.0 |
| 19 | VX-702 + docetaxel | 30.4 | 24.7 | 26.3 |
| 20 | fingolimod + bexarotene | 44.4 | 10.3 | 2.7 |
| 21 | sorafenib + sunitinib | 130 | 36.6 | 66.5 |
| 22 | GW0742 + bexarotene | 72.2 | 95.1 | 108 |
| 23 | LFM-A13 + pioglitazone | 97.6 | 78.6 | 99.5 |
| 24 | sunitinib + KU-55933 | 92.2 | 44.4 | 52.0 |
| 25 | GW0742 + RKI-983 | 83.8 | 87.8 | 71.5 |
| 26 | LFM-A13 + tanespimycin | 76.2 | 77.7 | 96.9 |

The last 3 entries again:

{"drugs": "sunitinib + KU-55933", "COLO 829": 92.2, "COLO 800": 44.4, "COLO 792": 52.0}
{"drugs": "GW0742 + RKI-983", "COLO 829": 83.8, "COLO 800": 87.8, "COLO 792": 71.5}
{"drugs": "LFM-A13 + tanespimycin", "COLO 829": 76.2, "COLO 800": 77.7, "COLO 792": 96.9}